Experiment [1] has as its system ReNCell VM. As to the kind of experiment: neuronal differentiation score (DCX+ cell fraction vs untreated, manual image score) (score (-3 to 3)); higher = more neuronal differentiation. Conditions: 2 uM, 2 weeks.
Experiment [2] deals with ReNCell VM. As to the kind of experiment: dopaminergic neuron differentiation score (TH+ cell fraction vs untreated, manual image score) (score (0 to 3)); higher = more TH+ dopaminergic neuron differentiation. Conditions: 2 uM, 4 weeks, BDNF 10 ng/ml + GDNF 10 ng/ml.

The structures appear in SMILES notation. Counter-ions that a name gives are not always drawn. The list shows a part of the results. Single values are uncertain here, since repeats match poorly.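 Human fetal ventral-midbrain neural progenitor line ReNCell VM, differentiated without mitogens. Images stained for doublecortin (early neurons) or tyrosine hydroxylase (dopaminergic neurons) were scored by blinded raters against untreated wells (0 = no change). Repeats and both raters were averaged, and compounds averaging 2 or higher were picked as hits for retesting.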

For the compound `CN(C)CCOC(c1ccccc1)c1ccccc1.Cn1c(=O)c2[nH]c(Cl)nc2n(C)c1=O` [Dimenhydrinate], in the experiment on ReNCell VM [1] (library: Prestwick), the neuronal differentiation score is inactive: 0. Besides, the “dopaminergic neuron differentiation score” value in the experiment with ReNCell VM [2] (library: Prestwick) was inactive: 0.
With `CC1=CC(=O)C2=C(C)CC[C@@H]3[C@H](OC(=O)[C@H]3C)[C@@H]12` [Leucomisine], in the experiment on ReNCell VM [1] (library: Phytochemical), the neuronal differentiation score is inactive: 0. For the same compound, the “dopaminergic neuron differentiation score” value in the experiment with ReNCell VM [2] (library: Phytochemical) was inactive: 0.
Turning to `COc1cc2c(cc1OC)OC(C)(C)C=C2` [6,7-dimethoxy-2,2-dimethyl-2h-1-benzopyran], the neuronal differentiation score with ReNCell VM [1] (library: Natural) was inactive: 0. The “dopaminergic neuron differentiation score” value in the experiment on ReNCell VM [2] (library: Natural) was inactive: 0.
`CC(=O)OC(C)C[N+](C)(C)C` (centres undefined) [Methacholine chloride]: the neuronal differentiation score with ReNCell VM [1] (library: Prestwick) is inactive: 0. The “dopaminergic neuron differentiation score” value in the experiment on ReNCell VM [2] (library: Prestwick) was inactive: 0.
With `Nc1ccn([C@@H]2CS[C@H](CO)O2)c(=O)n1` [Lamivudine], the neuronal differentiation score in the experiment on ReNCell VM [1] (library: Prestwick) was inactive: 0. Further, in the experiment with ReNCell VM [2] (library: Prestwick), the “dopaminergic neuron differentiation score” value was inactive: 0.
As for `CCCCN(CCCC)CCCOC(=O)c1ccc(N)cc1` [Butacaine], the neuronal differentiation score in the experiment on ReNCell VM [1] (library: Prestwick) is inactive: 0. Besides, in the experiment with ReNCell VM [2] (library: Prestwick), the “dopaminergic neuron differentiation score” value is inactive: 0.
Regarding `Nc1nnc(Sc2ncc([N+](=O)[O-])s2)s1`, the neuronal differentiation score with ReNCell VM [1] (library: Tocriscreen) was inactive: 0. Moreover, the “dopaminergic neuron differentiation score” value in the experiment on ReNCell VM [2] (library: Tocriscreen) was inactive: 0.
Take `CC(C)c1c(O)ccc2c1CC[C@H]1C(C)(C)CCC[C@]21C`: the neuronal differentiation score in the experiment with ReNCell VM [1] (library: Spectrum) was inactive: 0. Further, in the experiment with ReNCell VM [2] (library: Spectrum), the “dopaminergic neuron differentiation score” value is inactive: 0.
In the case of `c1ccc(-c2n[nH]c3c2oc2ccccc23)cc1`, the neuronal differentiation score in the experiment on ReNCell VM [1] (library: Tocriscreen) is inactive: 0. Further, in the experiment with ReNCell VM [2] (library: Tocriscreen), the “dopaminergic neuron differentiation score” value is inactive: 0.
For the compound `COc1cc2occ(-c3ccc(OC)c(OC)c3OC)c(=O)c2cc1OC`, the neuronal differentiation score with ReNCell VM [1] (library: Spectrum) is inactive: 0. In addition, the “dopaminergic neuron differentiation score” value in the experiment with ReNCell VM [2] (library: Spectrum) is inactive: 0.
For `O=C(/C=C/c1ccccc1)c1ccc(O)cc1`, the neuronal differentiation score in the experiment with ReNCell VM [1] (library: Spectrum) is inactive: 0. Also, in the experiment on ReNCell VM [2] (library: Spectrum), the “dopaminergic neuron differentiation score” value was inactive: 0.
`CCCCC(=O)O[C@]1(C(=O)CO)[C@@H](C)C[C@H]2[C@@H]3CCC4=CC(=O)C=C[C@]4(C)[C@@]3(F)[C@@H](O)C[C@@]21C`: the neuronal differentiation score in the experiment with ReNCell VM [1] (library: Spectrum) was inactive: 0. In the experiment with ReNCell VM [2] (library: Spectrum), the “dopaminergic neuron differentiation score” value is inactive: 0.
In the case of `CCCCCCCCNC(C)C(O)c1ccc(SC(C)C)cc1` (centres undefined), the neuronal differentiation score with ReNCell VM [1] (library: Spectrum) is inactive: 0. The “dopaminergic neuron differentiation score” value in the experiment with ReNCell VM [2] (library: Spectrum) is inactive: 0.
As for `C#C[C@]1(OC(C)=O)CC[C@H]2[C@@H]3CCC4=CC(=O)CC[C@@H]4[C@H]3CC[C@@]21C`, the neuronal differentiation score in the experiment on ReNCell VM [1] (library: Spectrum) is inactive: 0. The “dopaminergic neuron differentiation score” value in the experiment with ReNCell VM [2] (library: Spectrum) was inactive: 0.
As for `COc1cc(NS(=O)(=O)c2ccc(N)cc2)ncn1` [Sulfamonomethoxine], the neuronal differentiation score in the experiment with ReNCell VM [1] (library: Prestwick) was inactive: 0. The “dopaminergic neuron differentiation score” value in the experiment on ReNCell VM [2] (library: Prestwick) was inactive: 0.
As to `O=S1(=O)c2cccc3cccc(c23)N1CCCN1CCN(c2ccc(F)cc2)CC1` [Fananserin], in the experiment on ReNCell VM [1] (library: Tocriscreen), the neuronal differentiation score is inactive: 0. The “dopaminergic neuron differentiation score” value with ReNCell VM [2] (library: Tocriscreen) is inactive: 0.
For `COc1cc(Br)c(S(=O)(=O)Nc2ccc(Cl)c(O[C@@H]3CCN(C)C3)c2)cc1OC`, the neuronal differentiation score in the experiment with ReNCell VM [1] (library: Tocriscreen) is inactive: 0. Further, the “dopaminergic neuron differentiation score” value in the experiment with ReNCell VM [2] (library: Tocriscreen) was inactive: 0.
Regarding `COc1cc(O)c2c(=O)c(O)c(-c3ccccc3)oc2c1`, the neuronal differentiation score with ReNCell VM [1] (library: Spectrum) is inactive: 0. In the experiment with ReNCell VM [2] (library: Spectrum), the “dopaminergic neuron differentiation score” value is inactive: 0.
On to `CN1C(=O)CC(c2ccccc2)C1=O` (centres undefined) [Phensuximide], for which the neuronal differentiation score in the experiment on ReNCell VM [1] (library: Prestwick) was inactive: 0. Moreover, the “dopaminergic neuron differentiation score” value in the experiment on ReNCell VM [2] (library: Prestwick) is inactive: 0.
With `C[C@H](CCC(=O)O)[C@H]1CC[C@H]2[C@@H]3C(=O)C[C@@H]4CC(=O)CC[C@]4(C)[C@H]3CC(=O)[C@]12C`, in the experiment on ReNCell VM [1] (library: Spectrum), the neuronal differentiation score was inactive: 0. Moreover, the “dopaminergic neuron differentiation score” value with ReNCell VM [2] (library: Spectrum) is inactive: 0.
With `O=C(O)/C=C/C=C/c1ccccc1`, the neuronal differentiation score in the experiment with ReNCell VM [1] (library: Spectrum) is inactive: 0. Besides, the “dopaminergic neuron differentiation score” value with ReNCell VM [2] (library: Spectrum) was inactive: 0.
Consider `CN(C)[C@@H]1C(O)=C(C(=O)NCN2CCCC2)C(=O)[C@@]2(O)C(O)=C3C(=O)c4c(O)cccc4[C@@](C)(O)[C@H]3C[C@@H]12`, for which the neuronal differentiation score in the experiment with ReNCell VM [1] (library: Spectrum) was inactive: 0. Besides, the “dopaminergic neuron differentiation score” value in the experiment with ReNCell VM [2] (library: Spectrum) is inactive: 0.
On to `CN(C)CCC=C1c2ccccc2CCc2ccccc21` [Amitryptiline hydrochloride], for which, in the experiment on ReNCell VM [1] (library: Prestwick), the neuronal differentiation score is inactive: 0. Besides, the “dopaminergic neuron differentiation score” value in the experiment on ReNCell VM [2] (library: Prestwick) is inactive: 0.
In the case of `CCC(=O)O[C@@H](O[P@](=O)(CCCCc1ccccc1)CC(=O)N1C[C@H](C2CCCCC2)C[C@H]1C(=O)O)C(C)C` [Fosinopril], the neuronal differentiation score in the experiment with ReNCell VM [1] (library: Prestwick) was inactive: 0. Moreover, in the experiment with ReNCell VM [2] (library: Prestwick), the “dopaminergic neuron differentiation score” value was inactive: 0.
For `C[C@]12CC[C@H]3C(=CCc4cc(O)ccc43)[C@@H]1CCC2=O`, the neuronal differentiation score with ReNCell VM [1] (library: Spectrum) is inactive: 0. The “dopaminergic neuron differentiation score” value with ReNCell VM [2] (library: Spectrum) was inactive: 0.
On to `O=C(O)CCC(C(=O)O)N1C(=O)c2ccccc2C1=O` [L-Glutamic acid, N-phthaloyl-], for which the neuronal differentiation score with ReNCell VM [1] (library: LOPAC) was inactive: 0. For the same compound, in the experiment on ReNCell VM [2] (library: LOPAC), the “dopaminergic neuron differentiation score” value is inactive: 0.
On to `COc1ccccc1N1CCN(CCN(C(=O)c2ccc(F)cc2)c2ccccn2)CC1` [p-MPPF dihydrochloride], for which the neuronal differentiation score in the experiment with ReNCell VM [1] (library: LOPAC) was inactive: 0. In addition, the “dopaminergic neuron differentiation score” value in the experiment with ReNCell VM [2] (library: LOPAC) is inactive: 0.

(Values after the supplement of paper PMC4635364.)
